PubChem BioAssay AID1259286 | Sanger Institute – 2017

Aim: 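Kinase knock-downs that reduce colorectal cancer cell viability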 (primary screen)
Cell system: NCI-H630 human colorectal cancer cells
Reagents: siRNA pool against human genes
Treatment: anchor drugs BYL719 at 1 µM, cetuximab at 5 µg/ml or trametinib at 10 nM, or DMSO vehicle alone; exposure time not given
Measurement: 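Replicate-averaged viability as a fraction of non-targeting control, knock-down-alone robust z-score, and per-drug synergy scores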
Reading the numbers: viability z-score, knock-down alone: higher = more viable cells, weaker knock-down effect; viability vs control, knock-down alone: higher = more viable cells; synergy score with trametinib: higher = stronger synergistic killing with trametinib; synergy score with BYL719: higher = stronger synergistic killing with BYL719; synergy score with cetuximab: higher = stronger synergistic killing with cetuximab
Active means: 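Essential call: robust z-score of viability with siRNA alone lower than -3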
Calls: active = essential when knocked down alone; inactive = not essential alone
The deposit covers 794 reagents; below is an unselected part. 17 of all reagents (2.1%) were called active. 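Calls use knock-down alone only; synergy above 0.15 marked separately; viability seems capped at control level; exposure time not given.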 Reagent sequences are not shown. The record does not give: the amount of reagent, the time to read-out.

target gene,PubChem SID,"viability z-score, knock-down alone","viability vs control, knock-down alone (fraction of control)",synergy score with trametinib,synergy score with BYL719,synergy score with cetuximab,Outcome
TP53RK,SID135620611,0.464,1,-0.0479,-0.0814,0.02,inactive
CLK3,SID56478875,0.464,1,-0.0479,-0.0466,0.0608,inactive
HIPK2,SID56478619,-0.0588,0.98,-0.0667,-0.0546,0.0415,inactive
EIF2AK1,SID56478942,-0.101,0.979,-0.0682,-0.0226,-0.0444,inactive
IP6K1,SID135621239,0.464,1,-0.0479,-0.0814,-0.0546,inactive
RPS6KA4,SID152147672,0.464,1,-0.0479,-0.0814,-0.0324,inactive
SMAD2,SID152156776,0.464,1,-0.0479,-0.0814,0.0448,inactive
MAPK9,SID56478662,0.464,1,-0.0479,-0.0696,0.0741,inactive
TEK,SID152152932,0.464,1,-0.0254,-0.0336,-0.0132,inactive
MAPK12,SID152156302,0.464,1,-0.0479,-0.069,-0.0242,inactive
BRD4,SID152154839,0.464,1,-0.0479,-0.0547,0.119,inactive
SKAP1,SID152154182,0.464,1,-0.0479,-0.0814,-0.0475,inactive
AMER1,SID135623077,0.464,1,-0.0479,0.0322,-0.0813,inactive
TLK2,SID56479057,-0.752,0.954,-0.0112,-0.0383,-0.0677,inactive
CHEK1,SID152148697,-2.59,0.884,0.0353,0.109,0.0775,inactive
PIK3C2B,SID56479135,0.464,1,-0.0479,-0.00893,0.0191,inactive
FGR,SID135620620,0.464,1,0.00619,-0.0814,0.0905,inactive
PKN3,SID56478823,0.464,1,-0.0479,0.0617,0.105,inactive
CDK16,SID152150805,0.464,1,-0.0479,0.0242,0.0612,inactive
DMPK,SID135620855,0.464,1,-0.0479,-0.0814,0.00913,inactive
MAST2,SID152154248,0.464,1,-0.0171,-0.0814,-0.121,inactive
ELF3,SID135623079,0.0326,0.984,0.0217,-0.0165,0.1,inactive
GTF2H1,SID56479243,-0.913,0.948,-0.0736,0.0431,0.135,inactive
PINK1,SID152149500,0.464,1,-0.0168,0.0193,0.025,inactive
BLK,SID56478485,0.107,0.987,-0.0607,-0.0938,0.0553,inactive
CERT1,SID56479254,0.464,1,-0.0479,-0.0814,-0.118,inactive
BRAF,SID152153735,-1.38,0.93,0.000917,0.00432,0.093,inactive
FLT4,SID152148537,0.464,1,-0.0479,-0.073,-0.0536,inactive

Just “synergy score with trametinib” (4 entries from above):
EIF2AK1 [SID56478942]: -0.0682
IP6K1 [SID135621239]: -0.0479
RPS6KA4 [SID152147672]: -0.0479
SMAD2 [SID152156776]: -0.0479

Additional results:
target gene,PubChem SID,"viability z-score, knock-down alone","viability vs control, knock-down alone (fraction of control)",synergy score with trametinib,synergy score with BYL719,synergy score with cetuximab,Outcome
PRKD3,SID56478959,-4.24,0.822,-0.0781,-0.122,-0.0442,active
MAP3K7,SID135620737,0.464,1,-0.0479,0.0226,0.00726,inactive
PRKCH,SID56478829,-0.682,0.957,-0.0653,0.0251,0.102,inactive
GRK2,SID152155453,0.264,0.992,-0.0377,0.0507,0.144,inactive
SGK1,SID152156682,-0.232,0.974,-0.0729,-0.0132,0.0417,inactive
MATK,SID152153842,0.464,1,-0.0479,-0.0814,0.0606,inactive
INSRR,SID56479015,0.464,1,-0.0479,0.00917,0.0135,inactive
CLK4,SID56478876,0.464,1,-0.026,-0.0172,0.044,inactive
EPHB1,SID152152600,0.464,1,-0.0479,-0.0323,-0.04,inactive
RPS6KB2,SID152153683,-0.761,0.954,-0.092,-0.107,-0.161,inactive
TESK1,SID152149255,0.433,0.999,-0.049,-0.0825,0.0723,inactive
NUAK1,SID56478923,0.464,1,-0.0479,-0.0788,-0.0179,inactive
LYN,SID135620625,-1.07,0.942,-0.0993,-0.0695,-0.0638,inactive
KCNH2,SID135621164,0.419,0.998,0,0.0105,0.043,inactive
HUNK,SID56478785,0.0458,0.984,-0.00822,0.0839,0.16,inactive
CDK4,SID56478598,0.464,1,-0.0479,0,0.00884,inactive
MAST3,SID152151496,0.464,1,-0.0335,-0.0538,0.00958,inactive
STK11,SID152153881,-0.664,0.957,-0.0414,-0.052,0.0143,inactive
CDK1,SID56478584,-0.396,0.967,-0.0788,0.00522,-0.0418,inactive
FXN,SID56479078,0.464,1,0.0162,-0.0455,0.00339,inactive
MVK,SID56479115,0.464,1,-0.0479,-0.00608,0.04,inactive
MAPK7,SID56478666,0.464,1,-0.0333,-0.0814,0.103,inactive
JAK3,SID56478525,0.464,1,-0.0479,-0.0686,0.0163,inactive
BMP2K,SID135620930,-1.44,0.928,-0.116,-0.148,-0.0142,inactive
FN1,SID134314553,-0.0409,0.981,-0.025,-0.0271,-0.0429,inactive
BUB1,SID152152440,-2.89,0.873,-0.103,-0.0938,0.0519,inactive
SPEG,SID56479185,0.0742,0.985,-0.0619,-0.00666,-0.112,inactive
NEK1,SID152155530,0.464,1,-0.0479,0.0961,-0.0507,inactive
PRKCZ,SID56478675,-6.82,0.724,-0.167,-0.159,-0.143,active
TTK,SID56478775,-3.44,0.852,-0.0424,-0.0462,-0.0373,active
ATM,SID152150358,0.353,0.996,-0.0354,0.0612,0.152,inactive
ZAP70,SID56479064,0.464,1,-0.0479,-0.0445,0.03,inactive
IDH2,SID134310230,0.464,1,0.0791,-0.0814,-0.0764,inactive
TNNI3K,SID56478945,0.464,1,-0.0479,-0.0633,-0.11,inactive
PRKACA,SID135620859,0.464,1,-0.0479,-0.0814,-0.0546,inactive
